Experimental findings from patent US20240368549A1, “ENHANCEMENT OF HEMATOPOIETIC STEM CELL AND HEMATOPOIETIC PROGENITOR CELL EXPANSION WITH AGENTS THAT ACTIVATE TAM RECEPTORS” (CANADIAN BLOOD SERVICES, priority 2021, published 2024) are described below.

In the data set the test system is AXL and GAS6 genes. Nature of the data set: AXL and GAS6 gene expression by qPCR in expanded HSPCs. It is filed as cell-based, human. For orientation: Real-time PCR tracks product formation cycle by cycle.

For `Nc1nc(=O)n(-c2cccc(-c3ccccc3)c2)cc1Cl` [Bobcat339], the “effect of TET inhibition on expression of AXL and GAS6” value (30 μM, day-10 to day-14) is recorded as “reduced the expression”.
For `O.O=C1O[C@H]([C@@H](O)CO)C(O)=C1OP(=O)([O-])[O-].[Mg+2]` [AA2P, L-ascorbic acid 2-phosphate magnesium salt hydrate], the “expression of AXL and GAS6” value (vs STFL control, 14 days) was “increased expression”.
